# Assay results published in PubChem BioAssay (EPA / NIEHS).
# Chains of the proteins cited; added tags and fusions are not shown.
# UniProt P06212, whole entry, looked up: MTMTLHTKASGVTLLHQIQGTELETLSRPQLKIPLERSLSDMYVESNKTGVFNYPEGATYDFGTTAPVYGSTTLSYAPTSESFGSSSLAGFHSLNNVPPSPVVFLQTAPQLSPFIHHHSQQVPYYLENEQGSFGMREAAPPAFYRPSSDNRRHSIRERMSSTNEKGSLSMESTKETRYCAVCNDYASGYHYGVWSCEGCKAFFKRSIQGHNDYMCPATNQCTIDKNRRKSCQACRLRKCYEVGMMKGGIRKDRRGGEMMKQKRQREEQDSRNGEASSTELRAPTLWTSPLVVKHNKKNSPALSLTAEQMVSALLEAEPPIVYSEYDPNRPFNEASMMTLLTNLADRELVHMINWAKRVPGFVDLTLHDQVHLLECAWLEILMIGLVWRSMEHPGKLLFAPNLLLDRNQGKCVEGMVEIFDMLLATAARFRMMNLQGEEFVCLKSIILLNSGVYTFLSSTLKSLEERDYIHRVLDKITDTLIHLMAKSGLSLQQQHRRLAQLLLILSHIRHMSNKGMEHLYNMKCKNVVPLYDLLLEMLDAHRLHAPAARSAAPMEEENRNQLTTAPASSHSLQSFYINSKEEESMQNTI
# UniProt P03372, whole entry, looked up: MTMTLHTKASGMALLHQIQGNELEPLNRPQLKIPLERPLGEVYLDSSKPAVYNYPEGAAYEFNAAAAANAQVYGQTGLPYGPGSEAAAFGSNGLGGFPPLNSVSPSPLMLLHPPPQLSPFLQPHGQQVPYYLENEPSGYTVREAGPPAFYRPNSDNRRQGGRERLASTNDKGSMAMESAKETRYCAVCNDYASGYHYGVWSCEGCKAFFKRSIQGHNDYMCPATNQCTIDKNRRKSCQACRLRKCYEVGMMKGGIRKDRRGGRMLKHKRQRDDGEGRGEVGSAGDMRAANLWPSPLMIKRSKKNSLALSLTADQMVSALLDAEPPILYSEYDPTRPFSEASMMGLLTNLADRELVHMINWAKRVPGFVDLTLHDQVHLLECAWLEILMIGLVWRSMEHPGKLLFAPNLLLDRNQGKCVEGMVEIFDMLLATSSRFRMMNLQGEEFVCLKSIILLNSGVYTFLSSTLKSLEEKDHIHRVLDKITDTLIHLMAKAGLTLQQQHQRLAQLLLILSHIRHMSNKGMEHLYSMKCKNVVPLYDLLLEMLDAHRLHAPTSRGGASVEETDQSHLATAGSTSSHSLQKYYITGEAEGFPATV
# “And” between values parts separate entries of the source, which are not always exact repeats. Equal values may be shown once. Inconclusive results, whose numbers are uncertain, are shown with a selection of clear calls. Potencies of inconclusive entries are doubtful fits and often do not repeat. A structure can be active in one record and inactive in another. The source made the active and inactive calls. The calls were made as follows: active = hit-call score of the fitted dose curve at least 0.9, where 1 is the maximum; inconclusive = response in the unintended direction; inactive = score below 0.9.
# How the values were obtained:
# [1] = biological target: chicken Estrogen Receptor (ERa), ESR1 (gene 396099) (UniProt P06212); test: ATG_chERa_XSP2: Attagene TRANS-FACTORIAL Multi-Species (XSP2) HepG2 Assay for chicken Estrogen Receptor (ERa) (AID 2283817);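 also: actives raise reporter signal above DMSO so AC50 reflects ER activation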
# In short: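 Transient MRTU transfection of HepG2 → 24 h chemical dosing → TriZol RNA, oligo(dT) RT → PCR, 6-FAM primer extension, HpaI digest → CE quantitation of chicken ERa-Gal4-driven reporter mRNA. Positive direction vs DMSO.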
# [2] = system: chicken Androgen Receptor (AR), gene 422165; test: ATG_chAR_XSP2: Attagene TRANS-FACTORIAL Multi-Species (XSP2) HepG2 Assay for chicken Androgen Receptor (AR) (AID 2283819);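 also: hits raise reporter mRNA above DMSO so potency is for activation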
# In short: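 HepG2 cells transiently transfected with chicken AR–GAL4 chimeric reporter constructs, stimulated with 3 nM 6-alpha-fluorotestosterone plus 1.5 nM norgestrel, dosed 24 h. Reporter mRNA quantified by RT-PCR and capillary electrophoresis; gain of signal fitted versus DMSO.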
# [3] = ATG_M_19_XSP2: Attagene TRANS-FACTORIAL Multi-Species (XSP2) HepG2 Assay for M32 Transcription Factor (Internal Marker) (AID 2283822)
# In short: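 Internal background marker in a multi-species nuclear receptor TRANS panel: transfected HepG2 cells exposed 24 h, with 3 nM 6-alpha-fluorotestosterone and 1.5 nM norgestrel present. Readout is RT-PCR of reporter transcripts resolved by capillary electrophoresis, gain-of-signal versus DMSO.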
# [4] = system: frog Androgen Receptor (AR), gene 399456; test: ATG_frAR_XSP2: Attagene TRANS-FACTORIAL Multi-Species (XSP2) HepG2 Assay for frog Androgen Receptor (AR) (AID 2283824);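 also: actives raise reporter signal above DMSO so AC50 reflects agonist-like induction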
# In short: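 HepG2 cells transiently transfected with GAL4-UAS reporter units and frog (Xenopus laevis) AR-Gal4 chimera; reporter mRNA measured 24 h after dosing by RT-PCR and capillary electrophoresis. Gain of signal fitted relative to DMSO baseline.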
# [5] = system: zebrafish Androgen Receptor (AR), gene 100005148; test: ATG_zfAR_XSP2: Attagene TRANS-FACTORIAL Multi-Species (XSP2) HepG2 Assay for zebrafish Androgen Receptor (AR) (AID 2283825);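 also: hits raise reporter mRNA above DMSO so AC50 reflects agonist-type gain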
# In short: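 Zebrafish AR–GAL4 chimera transiently expressed with GAL4-UAS reporter in HepG2 cells, co-stimulated with 3 nM 6-alpha-fluorotestosterone and 1.5 nM norgestrel; 24 h dosing, reporter mRNA read by RT-PCR/capillary electrophoresis versus DMSO.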
# [6] = biological target: Estrogen receptor (Homo sapiens) (UniProt P03372); test: ATG_hERa_XSP2: Attagene TRANS-FACTORIAL Multi-Species (XSP2) HepG2 Assay for human Estrogen Receptor (ERa) (AID 2283827)
# In short: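 HepG2 cells transiently transfected with multiplexed GAL4-UAS reporters driven by chimeric receptor-Gal4 proteins, dosed 24 h with 3 nM 6-alpha-fluorotestosterone and 1.5 nM norgestrel present. Reporter mRNA by RT-PCR and capillary electrophoresis; gain-of-signal fit versus DMSO.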
# [7] = system: zebrafish Estrogen Receptor (ER2a), gene 317734; test: ATG_zfER2a_XSP2: Attagene TRANS-FACTORIAL Multi-Species (XSP2) HepG2 Assay for zebrafish Estrogen Receptor (ER2a) (AID 2283818);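 also: hits raise reporter mRNA so AC50 reflects activation of zebrafish ER2a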
# In short: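 HepG2 cells transiently transfected with GAL4-UAS reporter units and chimeric zebrafish ER2a-Gal4, exposed 24 h; medium contains 3 nM 6-alpha-fluorotestosterone and 1.5 nM norgestrel. Reporter mRNA quantified by RT-PCR, HpaI digestion, capillary electrophoresis; gain versus DMSO.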
# [8] = system: zebrafish Estrogen Receptor (ER2b), gene 317733; test: ATG_zfER2b_XSP2: Attagene TRANS-FACTORIAL Multi-Species (XSP2) HepG2 Assay for zebrafish Estrogen Receptor (ER2b) (AID 2283823);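 also: fitted upward as reporter gain over DMSO so potency reflects activation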
# In short: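 Reporter transcripts quantified by RT-PCR, fluorescent labelling and capillary electrophoresis after 24 h dosing of transfected HepG2 expressing zebrafish ER2b-GAL4 fusion. Medium contained 3 nM 6-alpha-fluorotestosterone plus 1.5 nM norgestrel; DMSO baseline.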
# [9] = ATG_M_32_XSP2: Attagene TRANS-FACTORIAL Multi-Species (XSP2) HepG2 Assay for M19 Transcription Factor (Internal Marker) (AID 2283826)
# In short: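 HepG2 cells transiently transfected with GAL4-UAS reporter units; XSP2 panel included 3 nM 6-alpha-fluorotestosterone and 1.5 nM norgestrel for androgen receptor stimulation. Reporter mRNA read 24 h post-dosing by RT-PCR/capillary electrophoresis; fitted upward versus DMSO.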
# [10] = system: frog Estrogen Receptor (ER2), gene 100174814; test: ATG_frER2_XSP2: Attagene TRANS-FACTORIAL Multi-Species (XSP2) HepG2 Assay for frog Estrogen Receptor (ER2) (AID 2283828)
# In short: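 Multiplexed transactivation in HepG2: frog estrogen receptor fused to Gal4 drives a UAS reporter. Signal is reporter mRNA after 24 h treatment.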
smiles,measurement,setting,value
Nc1c(Cl)cc([N+](=O)[O-])cc1Cl,AC50,[1],active: 26.8 µM
same,outcome,[1],inactive
same,AC50,[2],inconclusive: 100 µM and inconclusive: 99.9 µM
same,outcome,[3],inactive
same,AC50,[4],inconclusive: 3.61 µM and inconclusive: 8.6 µM
same,AC50,[5],inconclusive: 9.14 nM and inconclusive: 21.1 µM
same,AC50,[6],active: 10.9 µM and active: 17.4 µM
CC(C)(C)c1ccc(O)cc1,outcome,[7],inactive
same,AC50,[8],active: 34.3 µM and active: 13.7 µM
same,AC50,[4],inconclusive: 73.2 µM and inconclusive: 34.6 µM
same,AC50,[5],inconclusive: 8.88 µM and inconclusive: 35.6 µM
O=[N+]([O-])c1ccc(Oc2ccc(Cl)cc2Cl)cc1,AC50,[7],inconclusive: 100 µM
same,AC50,[4],inconclusive: 4.66 µM and inconclusive: 1.8 µM
same,AC50,[5],inconclusive: 824 nM and inconclusive: 266 nM
same,AC50,[9],inconclusive: 100 µM
CC(C)NC(=O)N1CC(=O)N(c2cc(Cl)cc(Cl)c2)C1=O,outcome,[7],inactive
same,AC50,[2],inconclusive: 180 µM
same,outcome,[3],inactive
same,outcome,[5],inactive
CCC[CH2][Sn]([Cl])([CH2]CCC)[CH2]CCC,AC50,[1],inconclusive: 1.86 µM
same,AC50,[7],inconclusive: 1.86 µM
same,AC50,[3],inconclusive: 1 µM
same,AC50,[8],inconclusive: 1.71 µM
same,AC50,[4],inconclusive: 1.66 µM
same,AC50,[5],inconclusive: 1 µM
same,AC50,[9],inconclusive: 1.78 µM
CO/C=C(/C(=O)OC)c1ccccc1Oc1cc(Oc2ccccc2C#N)ncn1,AC50,[1],inconclusive: 0.264 µM
same,AC50,[7],inconclusive: 1 µM
same,AC50,[3],inconclusive: 1 µM
same,outcome,[5],inactive
same,AC50,[9],inconclusive: 1 µM
same,AC50,[6],inconclusive: 1 µM
same,AC50,[10],inconclusive: 396 nM
CCCCNC(=O)OCC#CI,AC50,[1],inconclusive: 100 µM
same,AC50,[7],inconclusive: 100 µM
same,AC50,[2],inconclusive: 10 µM
same,AC50,[4],inconclusive: 6.56 µM
same,AC50,[5],inconclusive: 100 µM
same,AC50,[6],inconclusive: 147 µM
same,outcome,[10],inactive
O=S1OCC2C(CO1)C1(Cl)C(Cl)=C(Cl)C2(Cl)C1(Cl)Cl (stereo unspecified),AC50,[7],inconclusive: 0.0415 µM
same,AC50,[2],inconclusive: 10 µM
same,AC50,[4],inconclusive: 10 µM
same,AC50,[5],inconclusive: 2.59 µM
same,AC50,[9],inconclusive: 1.59 µM
same,AC50,[6],active: 1.04 µM

# Some of the entries so far, bar-delimited.
smiles | measurement | setting | value
CCC[CH2][Sn]([Cl])([CH2]CCC)[CH2]CCC | AC50 | [3] | inconclusive: 1 µM
same | AC50 | [8] | inconclusive: 1.71 µM
same | AC50 | [4] | inconclusive: 1.66 µM
